Earlier results, collected in US5143916A, “Naphthylpiperazines useful as 5-HT1A receptor ligands” (Adir et Compagnie, priority 1989, dated 1992).
At least one structure is not confirmed: it was looked up by name or label, or the drawing left a doubt.

System: serotonin receptors
Details: Journal of Receptor Research, (1988), 8, (1-4), p. 59-81; cited from earlier work

## c1ccc2c(N3CCNCC3)cccc2c1 [(1-naphthyl)piperazine]
  Ligand of serotonin receptors: ligand of serotonin receptors
